Reference: patent US6649364B1, “Anti-apoptotic compositions and methods using same” (The Regents of the University of California, priority 1995, dated 2003)
At least one compound was matched to its structure with a doubt left. *1 amine or outer side, *2 acyl side, *3 side chain or, on linkers, in order; H or OH if unused. Where a SMILES comes first, the peptide text is derived from it. CO = O=C([*:1])[*:2]

Target: T1, human recombinant ICE (Homo sapiens, UniProt P29466)
T1 construct: highly purified human recombinant ICE (p20/p10) (Merck, Wayne, N.J.); purchased Merck, Wayne, N.J
T1 sequence (P29466 120-297 limits assumed): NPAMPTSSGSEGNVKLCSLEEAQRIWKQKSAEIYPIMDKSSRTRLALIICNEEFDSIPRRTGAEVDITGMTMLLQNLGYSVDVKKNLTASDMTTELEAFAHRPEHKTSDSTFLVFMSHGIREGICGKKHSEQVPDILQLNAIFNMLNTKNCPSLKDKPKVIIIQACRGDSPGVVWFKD
T1 sequence (P29466 317-404 limits assumed): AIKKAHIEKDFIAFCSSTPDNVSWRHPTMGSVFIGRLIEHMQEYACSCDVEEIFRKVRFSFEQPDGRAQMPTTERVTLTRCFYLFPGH
Assay: ICE cleavage of actin in PC12 cell extracts, with protease inhibitors (SDS-PAGE, immunoblot)
Type: biochemical
Conditions: cell extracts treated with ICE, 37° C., 2 hours
Procedure: Cells were washed with ice-cold PBS twice and were extracted with Triton X-100® detergent (1%) in Hepes buffer (10 mM, pH=7.5). Supernatants were treated with ICE as follows: 50 μg of cellular protein extracted from semi-confluent cells grown in serum-containing media was incubated with 50 ng of highly purified human recombinant ICE (p20/p10) (Merck, Wayne, N.J.) at 37° C. for 2 hours in the presence of 10 mM dithiothreitol (DTT).
In order to determine whether any of the cellular proteins of relatively high abundance serve as ICE substrates, extracts prepared from PC12 pheochromocytoma cells (29), CSM14.1 cells (conditionally immortalized mesencephalic neuronal cells) (30, 31), and Rat-1 cells (25) were treated with highly purified human recombinant ICE under various conditions. The cleavage products were then analyzed by SDS-polyacrylamide gel electrophoresis.
Control was incubated in the absence of ICE.

CC(C)[C@H](NC(=O)[C@H](CCCNC(=N)N)NC(=O)N[C@@H](Cc1ccccc1)C(=O)O)C(=O)N[C@H](C=O)CCCNC(=N)N [antipain] ({Phe-CO}-Arg-Val-Arg-aldehyde)
inhibition of the generation of actin fragments by ICE: not
